The other results are listed elsewhere or left out.
Compound: CC1=C2C(=CC=C1)N=C(N(C2=O)C3=CC=CC=C3C)CN4C=NC5=C(N=CN=C54)N
Test: log2 fold change, soluble protein after heating vs DMSO (PISA); higher = thermal stabilisation; K562 cells, 10 uM, 30 min; active = over 0.2 and 3.5 SD of the protein, either way, in both replicates (recomputed)
In short: (§1)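 Values are thermal stability changes relative to control samples and are taken from duplicates. They are stated as log2 fold changes. Before quantification by TMTpro 16plex LC-MS/MS with equalised channel sums, K562 cells at 2×10^6 cells/mL were treated with 10 μM compound for 30 min, heated in aliquots for 3 min across 48°C-58°C, pooled, extracted in PBS with 0.5% NP-40 at 4°C, and centrifuged at 21,000xg for 90 min to give the soluble supernatant.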

By UniProt entry, the sequences of proteins in these tests, tags left out. Where a name states a change or a piece, a line headed by the entry shows the natural chain unless it says otherwise.
UniProt Q9Y2Z2: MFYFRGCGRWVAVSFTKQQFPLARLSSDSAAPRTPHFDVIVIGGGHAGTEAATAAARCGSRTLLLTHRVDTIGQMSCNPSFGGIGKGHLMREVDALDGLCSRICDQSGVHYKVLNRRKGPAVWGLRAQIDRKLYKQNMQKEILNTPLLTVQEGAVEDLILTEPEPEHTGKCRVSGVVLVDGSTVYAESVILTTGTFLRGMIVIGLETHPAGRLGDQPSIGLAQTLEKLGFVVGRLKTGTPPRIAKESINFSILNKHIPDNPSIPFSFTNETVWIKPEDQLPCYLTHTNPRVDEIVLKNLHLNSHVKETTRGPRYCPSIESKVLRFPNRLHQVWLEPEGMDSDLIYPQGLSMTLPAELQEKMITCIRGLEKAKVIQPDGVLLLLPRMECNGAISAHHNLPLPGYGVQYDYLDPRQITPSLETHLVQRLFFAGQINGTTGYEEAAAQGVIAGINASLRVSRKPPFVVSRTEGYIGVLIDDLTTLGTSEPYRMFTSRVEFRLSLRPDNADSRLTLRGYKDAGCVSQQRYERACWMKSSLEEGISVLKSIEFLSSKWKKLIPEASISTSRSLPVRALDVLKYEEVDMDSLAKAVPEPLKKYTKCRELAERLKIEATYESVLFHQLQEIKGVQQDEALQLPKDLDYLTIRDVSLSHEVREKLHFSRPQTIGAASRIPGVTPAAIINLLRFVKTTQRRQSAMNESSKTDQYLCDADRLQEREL
UniProt P00414, whole entry, looked up: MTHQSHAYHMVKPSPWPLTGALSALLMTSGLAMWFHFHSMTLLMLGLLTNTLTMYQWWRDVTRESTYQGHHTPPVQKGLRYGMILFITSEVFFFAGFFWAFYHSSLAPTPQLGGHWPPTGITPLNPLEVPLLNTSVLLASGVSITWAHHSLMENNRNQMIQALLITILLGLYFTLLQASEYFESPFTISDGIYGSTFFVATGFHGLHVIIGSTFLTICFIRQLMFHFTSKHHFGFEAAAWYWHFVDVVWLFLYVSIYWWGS
UniProt P26038, whole entry, looked up: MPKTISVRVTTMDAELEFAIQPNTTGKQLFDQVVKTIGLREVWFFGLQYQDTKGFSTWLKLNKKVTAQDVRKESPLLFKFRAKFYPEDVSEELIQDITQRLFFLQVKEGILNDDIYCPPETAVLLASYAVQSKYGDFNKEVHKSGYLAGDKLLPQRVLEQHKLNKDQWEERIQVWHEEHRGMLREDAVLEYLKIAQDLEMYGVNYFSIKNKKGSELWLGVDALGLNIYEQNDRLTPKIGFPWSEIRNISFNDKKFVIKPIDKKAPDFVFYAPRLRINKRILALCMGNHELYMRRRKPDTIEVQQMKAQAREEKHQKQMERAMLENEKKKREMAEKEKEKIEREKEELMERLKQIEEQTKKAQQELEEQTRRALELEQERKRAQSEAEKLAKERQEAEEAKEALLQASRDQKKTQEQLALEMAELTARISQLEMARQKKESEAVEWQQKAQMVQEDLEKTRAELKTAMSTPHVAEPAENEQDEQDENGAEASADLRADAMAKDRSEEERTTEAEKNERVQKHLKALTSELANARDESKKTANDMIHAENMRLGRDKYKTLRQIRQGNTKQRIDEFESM
UniProt Q9BQG0: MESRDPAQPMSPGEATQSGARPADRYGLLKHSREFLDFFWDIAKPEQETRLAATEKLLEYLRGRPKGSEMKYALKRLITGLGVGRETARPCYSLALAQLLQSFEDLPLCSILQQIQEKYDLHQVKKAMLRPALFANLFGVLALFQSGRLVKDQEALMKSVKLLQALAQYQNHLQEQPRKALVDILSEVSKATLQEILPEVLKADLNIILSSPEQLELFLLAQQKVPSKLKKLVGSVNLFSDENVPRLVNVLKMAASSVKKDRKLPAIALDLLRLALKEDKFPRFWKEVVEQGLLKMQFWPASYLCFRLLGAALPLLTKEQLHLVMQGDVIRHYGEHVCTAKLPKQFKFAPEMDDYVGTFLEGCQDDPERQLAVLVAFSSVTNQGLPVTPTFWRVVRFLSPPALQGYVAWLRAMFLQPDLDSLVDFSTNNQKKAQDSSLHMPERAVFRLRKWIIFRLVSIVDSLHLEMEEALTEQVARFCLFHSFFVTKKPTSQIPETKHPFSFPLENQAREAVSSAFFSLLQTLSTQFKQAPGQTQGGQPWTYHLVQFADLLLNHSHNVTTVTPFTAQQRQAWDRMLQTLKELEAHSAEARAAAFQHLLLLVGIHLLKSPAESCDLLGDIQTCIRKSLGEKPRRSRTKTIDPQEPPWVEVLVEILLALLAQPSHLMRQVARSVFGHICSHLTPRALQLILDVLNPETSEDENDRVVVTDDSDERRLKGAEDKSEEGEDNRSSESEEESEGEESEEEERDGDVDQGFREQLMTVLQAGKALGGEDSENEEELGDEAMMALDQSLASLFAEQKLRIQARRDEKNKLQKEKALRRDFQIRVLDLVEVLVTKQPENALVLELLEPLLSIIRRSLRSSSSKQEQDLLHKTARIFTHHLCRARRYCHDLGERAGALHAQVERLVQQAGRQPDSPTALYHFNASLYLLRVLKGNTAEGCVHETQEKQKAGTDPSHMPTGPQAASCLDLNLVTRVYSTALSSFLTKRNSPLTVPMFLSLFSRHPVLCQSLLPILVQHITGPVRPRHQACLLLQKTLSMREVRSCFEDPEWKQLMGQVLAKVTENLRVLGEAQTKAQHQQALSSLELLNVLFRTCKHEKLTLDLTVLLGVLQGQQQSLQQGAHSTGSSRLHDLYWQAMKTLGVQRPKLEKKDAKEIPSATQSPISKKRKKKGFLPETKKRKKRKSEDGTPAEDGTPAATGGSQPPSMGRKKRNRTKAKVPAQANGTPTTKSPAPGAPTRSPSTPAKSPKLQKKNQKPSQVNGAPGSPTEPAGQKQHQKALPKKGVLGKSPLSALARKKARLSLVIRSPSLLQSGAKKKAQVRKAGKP
UniProt P03928: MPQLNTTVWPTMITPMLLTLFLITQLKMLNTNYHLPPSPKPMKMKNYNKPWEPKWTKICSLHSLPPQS
UniProt Q2M296: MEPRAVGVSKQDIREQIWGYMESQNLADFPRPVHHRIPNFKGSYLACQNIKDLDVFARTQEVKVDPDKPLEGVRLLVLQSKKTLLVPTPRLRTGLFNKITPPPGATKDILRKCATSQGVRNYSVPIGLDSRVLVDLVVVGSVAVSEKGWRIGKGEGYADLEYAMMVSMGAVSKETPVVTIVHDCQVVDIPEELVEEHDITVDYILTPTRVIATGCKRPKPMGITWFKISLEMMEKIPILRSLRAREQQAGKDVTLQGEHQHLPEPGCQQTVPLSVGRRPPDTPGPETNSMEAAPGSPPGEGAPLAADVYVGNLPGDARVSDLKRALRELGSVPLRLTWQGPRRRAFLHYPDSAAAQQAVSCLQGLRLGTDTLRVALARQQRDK
UniProt Q9BTC8: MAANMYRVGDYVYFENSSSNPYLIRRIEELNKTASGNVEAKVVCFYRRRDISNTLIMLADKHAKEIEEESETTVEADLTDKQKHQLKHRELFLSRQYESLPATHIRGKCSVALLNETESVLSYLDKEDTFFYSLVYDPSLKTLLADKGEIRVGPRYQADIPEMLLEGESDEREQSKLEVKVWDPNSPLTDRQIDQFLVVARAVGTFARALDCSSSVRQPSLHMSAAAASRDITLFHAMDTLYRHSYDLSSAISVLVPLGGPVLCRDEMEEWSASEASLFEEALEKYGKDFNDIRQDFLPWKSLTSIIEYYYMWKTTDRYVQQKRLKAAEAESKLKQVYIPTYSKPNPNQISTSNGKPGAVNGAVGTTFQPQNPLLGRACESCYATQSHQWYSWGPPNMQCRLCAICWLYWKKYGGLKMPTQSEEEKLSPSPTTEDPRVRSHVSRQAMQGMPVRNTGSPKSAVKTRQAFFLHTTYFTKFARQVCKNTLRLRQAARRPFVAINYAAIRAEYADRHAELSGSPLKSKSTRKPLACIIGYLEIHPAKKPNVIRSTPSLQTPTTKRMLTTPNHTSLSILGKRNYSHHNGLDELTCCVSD
UniProt Q96DP5: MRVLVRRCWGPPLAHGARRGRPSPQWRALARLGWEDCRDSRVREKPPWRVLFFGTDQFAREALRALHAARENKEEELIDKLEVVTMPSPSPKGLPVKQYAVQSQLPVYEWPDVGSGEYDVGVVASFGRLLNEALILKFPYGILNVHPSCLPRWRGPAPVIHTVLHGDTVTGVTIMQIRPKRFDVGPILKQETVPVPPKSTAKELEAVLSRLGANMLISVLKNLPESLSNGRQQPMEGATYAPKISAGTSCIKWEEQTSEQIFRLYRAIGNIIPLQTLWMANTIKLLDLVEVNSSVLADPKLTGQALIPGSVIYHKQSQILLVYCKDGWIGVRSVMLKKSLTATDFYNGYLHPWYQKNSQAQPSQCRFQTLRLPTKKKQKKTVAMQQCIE
UniProt P11055, whole entry, looked up: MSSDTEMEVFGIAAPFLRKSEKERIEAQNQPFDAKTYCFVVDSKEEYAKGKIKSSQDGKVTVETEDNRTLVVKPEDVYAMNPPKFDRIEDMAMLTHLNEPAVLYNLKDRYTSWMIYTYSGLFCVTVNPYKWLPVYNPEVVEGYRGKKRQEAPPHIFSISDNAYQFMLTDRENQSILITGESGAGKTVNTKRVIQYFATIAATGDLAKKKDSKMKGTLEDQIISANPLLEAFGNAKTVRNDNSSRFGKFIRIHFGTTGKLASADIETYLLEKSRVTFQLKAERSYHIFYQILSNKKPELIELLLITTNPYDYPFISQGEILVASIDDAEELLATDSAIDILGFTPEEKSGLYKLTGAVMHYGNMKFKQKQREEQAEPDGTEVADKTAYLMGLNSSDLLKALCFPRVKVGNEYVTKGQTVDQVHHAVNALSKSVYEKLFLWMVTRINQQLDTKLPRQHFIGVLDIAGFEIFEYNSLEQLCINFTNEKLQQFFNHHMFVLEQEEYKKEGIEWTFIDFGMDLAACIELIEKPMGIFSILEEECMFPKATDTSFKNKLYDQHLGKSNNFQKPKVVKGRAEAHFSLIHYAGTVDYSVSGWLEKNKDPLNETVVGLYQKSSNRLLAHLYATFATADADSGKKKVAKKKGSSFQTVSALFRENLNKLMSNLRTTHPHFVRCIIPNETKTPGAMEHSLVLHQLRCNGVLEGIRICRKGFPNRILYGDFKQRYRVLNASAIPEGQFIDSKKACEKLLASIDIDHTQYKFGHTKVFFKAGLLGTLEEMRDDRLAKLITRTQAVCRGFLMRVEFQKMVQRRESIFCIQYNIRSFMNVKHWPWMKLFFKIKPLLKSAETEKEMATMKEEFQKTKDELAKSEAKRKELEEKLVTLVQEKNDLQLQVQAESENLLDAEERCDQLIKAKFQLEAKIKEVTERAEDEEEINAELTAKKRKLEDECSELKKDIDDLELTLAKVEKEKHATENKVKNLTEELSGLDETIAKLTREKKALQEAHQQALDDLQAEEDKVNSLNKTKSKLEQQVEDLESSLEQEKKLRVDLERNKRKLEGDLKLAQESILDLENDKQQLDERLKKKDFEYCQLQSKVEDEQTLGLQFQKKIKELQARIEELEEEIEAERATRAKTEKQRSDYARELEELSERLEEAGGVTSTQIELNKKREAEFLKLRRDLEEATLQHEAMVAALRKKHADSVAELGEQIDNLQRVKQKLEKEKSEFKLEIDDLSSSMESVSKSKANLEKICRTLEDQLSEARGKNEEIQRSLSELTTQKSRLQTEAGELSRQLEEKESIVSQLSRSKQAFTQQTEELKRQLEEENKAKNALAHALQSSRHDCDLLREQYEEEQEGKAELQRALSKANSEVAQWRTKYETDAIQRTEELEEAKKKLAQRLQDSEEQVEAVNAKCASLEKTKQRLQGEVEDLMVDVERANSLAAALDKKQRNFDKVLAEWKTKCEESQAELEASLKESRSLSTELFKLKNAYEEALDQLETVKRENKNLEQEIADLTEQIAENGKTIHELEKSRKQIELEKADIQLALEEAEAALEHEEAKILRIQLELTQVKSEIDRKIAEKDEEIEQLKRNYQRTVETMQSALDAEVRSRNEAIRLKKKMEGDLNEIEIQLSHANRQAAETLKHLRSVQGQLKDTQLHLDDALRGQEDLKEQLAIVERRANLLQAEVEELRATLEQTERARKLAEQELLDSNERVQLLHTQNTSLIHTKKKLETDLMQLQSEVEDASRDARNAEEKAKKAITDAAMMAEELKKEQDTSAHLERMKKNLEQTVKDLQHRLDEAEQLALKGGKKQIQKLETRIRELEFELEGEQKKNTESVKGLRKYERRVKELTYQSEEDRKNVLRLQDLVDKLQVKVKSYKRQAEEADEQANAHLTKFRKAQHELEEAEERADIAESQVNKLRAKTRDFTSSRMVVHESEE

| Target | log2 fold change |
| --- | --- |
| MTO1 isoform 6 (UniProt Q9Y2Z2) | inactive: 0.064 |
| MUC1, A0A087WWM1 | inactive: 0.103 |
| MTSS1 isoform 5 (UniProt O43312) | inactive: -0.023 |

Compound: Cc1sc2c(c1C)C(c1ccc(Cl)cc1)=N[C@@H](CC(=O)OC(C)(C)C)c1nnc(C)n1-2
Test: as above
In short: as §1

| Target | log2 fold change |
| --- | --- |
| MVB12A (UniProt Q96EY5) | inactive: 0.012 |
| MYO1C (UniProt O00159) | inactive: 0.036 |
| MT-CO3 (UniProt P00414) | inactive: -0.185 |
| MRPL58 (UniProt Q14197) | inactive: 0.081 |
| MYO1D (UniProt O94832) | inactive: 0.037 |
| MSN (UniProt P26038) | inactive: -0.015 |
| MYBBP1A isoform 2 (UniProt Q9BQG0) | inactive: -0.046 |
| MT-ATP8 (UniProt P03928) | inactive: 0.034 |
| MTURN (UniProt Q8N3F0) | inactive: 0.106 |
| MRPS23 (UniProt Q9Y3D9) | inactive: 0.076 |
| MTCH1 (UniProt Q9NZJ7) | inactive: -0.025 |
| MYO18B isoform 3 (UniProt Q8IUG5) | inactive: 0.23 |
| MTOR (UniProt P42345) | inactive: -0.001 |
| MTHFSD (UniProt Q2M296) | inactive: 0.042 |
| MTERF3 (UniProt Q96E29) | inactive: 0.048 |
| MTA3 (UniProt Q9BTC8) | inactive: -0.11 |
| MTFMT (UniProt Q96DP5) | inactive: 0.025 |
| MSANTD2 (UniProt Q6P1R3) | inactive: 0.028 |
| MYH3 (UniProt P11055) | inactive: -0.156 |
| MTERF4 (UniProt Q7Z6M4) | inactive: 0.061 |

2 entries from above, reformatted:
MRPL58 (UniProt Q14197)
  log2 fold change: inactive: 0.081
MYO1D (UniProt O94832)
  log2 fold change: inactive: 0.037
